These are yes or no findings as the source states them, for the method shown. Binding seen in cells or lysates may run through a third protein. Some binding calls cover weakened binding; strength is not graded here.
Columns and labels:
Flag-tagged Smad4 = Flag-tagged Smad4 (UniProt Q13485); assay: co-IP; COS-7 cells transfected with both; lysed in RIPA buffer; Flag-tagged Smad4 precipitated, Myc-Nkx2-5 detected with anti-Nkx2-5 and anti-Myc antibodies (Fig. 3A)
Myc-tagged Nkx2-5 [1] = molecular target: Myc-tagged Nkx2-5 (UniProt P42582); assay: co-IP; nuclear extract of transfected COS-7 cells (NE-PER reagents), 24 h after transfection (Fig. 3D)
Myc-tagged Nkx2-5 [2] = molecular target: Myc-tagged Nkx2-5 (UniProt P42582); assay: co-IP; COS-7 cells transfected with both; lysed in RIPA buffer; Myc-tagged Nkx2-5 precipitated, Flag-tagged Smad4 constructs detected with anti-Smad4 and anti-Flag antibodies (Fig. 3B)

Amino acid sequences for entries named in this document (tags omitted).
UniProt Q13485: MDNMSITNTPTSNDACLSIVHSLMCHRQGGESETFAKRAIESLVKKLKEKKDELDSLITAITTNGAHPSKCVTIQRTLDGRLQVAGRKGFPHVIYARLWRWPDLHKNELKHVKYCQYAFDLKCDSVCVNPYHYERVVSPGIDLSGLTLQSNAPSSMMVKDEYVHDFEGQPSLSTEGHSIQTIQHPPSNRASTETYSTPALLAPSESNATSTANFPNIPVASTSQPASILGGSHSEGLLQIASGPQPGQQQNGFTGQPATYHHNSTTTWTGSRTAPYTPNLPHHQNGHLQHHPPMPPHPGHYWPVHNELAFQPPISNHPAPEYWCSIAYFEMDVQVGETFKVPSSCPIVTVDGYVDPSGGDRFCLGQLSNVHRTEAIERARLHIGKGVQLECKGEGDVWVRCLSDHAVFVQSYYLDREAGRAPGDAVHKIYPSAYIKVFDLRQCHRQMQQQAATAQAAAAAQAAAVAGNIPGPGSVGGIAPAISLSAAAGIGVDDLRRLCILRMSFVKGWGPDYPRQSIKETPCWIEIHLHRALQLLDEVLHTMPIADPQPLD
UniProt P42582: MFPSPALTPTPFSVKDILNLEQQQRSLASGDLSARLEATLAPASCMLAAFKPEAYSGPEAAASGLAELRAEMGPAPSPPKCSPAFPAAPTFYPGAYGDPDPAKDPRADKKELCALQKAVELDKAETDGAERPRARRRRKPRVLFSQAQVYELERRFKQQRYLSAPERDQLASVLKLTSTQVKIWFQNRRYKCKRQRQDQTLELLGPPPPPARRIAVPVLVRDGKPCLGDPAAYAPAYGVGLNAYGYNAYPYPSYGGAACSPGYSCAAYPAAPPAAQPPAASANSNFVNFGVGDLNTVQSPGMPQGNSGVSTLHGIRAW

| Substance | binding (Flag-tagged Smad4) | binding (Myc-tagged Nkx2-5 [1]) | binding (Myc-tagged Nkx2-5 [2]) |
| --- | --- | --- | --- |
| Myc-tagged Nkx2-5 (from UniProt P42582 1-318) | binds | – | – |
| Flag-tagged Smad4 (from UniProt Q13485 1-552) | – | binds | binds |
